Data taken from patent US8945862B2, “Triple-fusion constructs and methods of monitoring human embryonic stem cells” (The Board of Trustees of the Leland Stanford Junior …, priority 2007, dated 2015).
At least one structure is not confirmed: it was looked up by name or label, or the drawing left a doubt.

Test system: H9^DF hESCs
Experiment: Bioluminescent imaging of transplanted hESC survival under immunosuppressive drug treatment
Assay type: in vivo, BALB/c mice
Settings: vs no treatment; BLI
Experimental: H1, H9 and H9DF hESCs were initially maintained on top of murine embryonic fibroblasts feeder (MEF) layers as detailed in SI Methods. To prevent contamination of the transplanted hESC population with MEF, hESC colonies were separated from MEF by incubation with dispase (Invitrogen) and subcultured on feeder-free matrigel (hESC qualified, BD Biosciences) coated 6-well plates in mTeSR™ 1 maintenance medium (Stem Cell Technologies) for 2 to 5 passages. MHC expression on hESCs was evaluated by flow cytometry as detailed in SI Methods. Shortly prior to transplantation, hESCs were trypsinated, and resuspended in sterile PBS at 1×10^6 cells per 20 μl. hESC transplantation was performed by direct injection into gastrocnemius muscles of recipient mice (using a 29.5 gauge insulin syringe.
BLI was performed using the Xenogen In Vivo Imaging System as previously described (38). Briefly, mice were anesthetized with isoflurane and D-luciferin was administered intraperitoneally at a dose of 375 mg/kg body weight. At the time of imaging, animals were placed in a light-tight chamber, and photons emitted from luciferase expressing hESCs transplanted into the animals were collected with integration times of 5 sec-5 min, depending on the intensity of the bioluminescence emission. […] BLI signal was quantified in units of photons per second (Total flux) and presented as Log[photons/sec].

## CO[C@H]1C[C@@H]2CC[C@@H](C)[C@@](O)(O2)C(=O)C(=O)N2CCCC[C@H]2C(=O)O[C@H]([C@H](C)C[C@@H]2CC[C@@H](O)[C@H](OC)C2)CC(=O)[C@H](C)/C=C(\C)[C@@H](O)[C@@H](OC)C(=O)[C@H](C)C[C@H](C)/C=C/C=C/C=C/1C [SIR, sirolimus]
  effect on hESC survival: extended hESC survival significantly
